Measurements from PubChem BioAssay AID1487 (National Center for Advancing Translational Sciences (NCATS), 2009).
This is one part of the list. Shown are side measurements of this screen, not its main read-out; they come without a call. Compounds called inactive in the main read-out are mostly missing here. The note in brackets gives the kind of curve behind each potency; many fits are weak.

Test: qHTS Assay for Modulators of Lamin A Splicing
Settings: HeLa LMNA splicing GFP/RFP minigene ratio, 48 h
In short: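 S3 HeLa cells stably expressing lamin A-EGFP splicing minigene plus DsRed2, 600 cells/well, 48 h compound exposure at 37C. Laser-scanning cytometry; analysed as GFP (500-530 nm)/RFP (575-640 nm) total intensity ratio; 0.5% DMSO vehicle.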

[1] = measured here: RFP viability control channel
[2] = measured here: GFP splicing reporter channel

Row | SMILES | AC50 [1] | AC50 [2]
1 | CCOc1ccc(NC(=O)c2cc(S(=O)(=O)NC3CCCCCC3)ccc2F)cc1 | 14.1 µM [rising, partial curve, poor fit] | –
2 | O=C(c1cccs1)N(Cc1nc2sc3c(c2c(=O)[nH]1)CCCC3)C1CCCC1 | 0.631 µM [rising, full curve] | –
3 | Brc1ccc2nc(-c3cccs3)c(NCC3CCCO3)n2c1 (configuration not stated) | – | 14.1 µM [rising, single point]
4 | CCCn1c(NC(=O)c2cccc(S(=O)(=O)N3CCCC3)c2)nc2ccccc21 | 35.5 µM [falling, single point] | 35.5 µM [falling, single point]
5 | Cc1ccc(-n2ncc3c(NCc4ccccn4)ncnc32)c(C)c1 | 4.47 µM [rising, partial curve, poor fit] | 1.41 µM [rising, partial curve]
6 | O=C(Nc1ccc(Cl)cn1)C1CCCN1S(=O)(=O)c1ccccc1 (configuration not stated) | 28.2 µM [rising, single point] | –
7 | COC1CC(O[C@H]2/C(C)=C/CC3CC(C[C@]4(CCC(C)C(C5CCCCC5)O4)O3)OC(=O)[C@H]3C=C(C)/C(=N/O)C4OC/C(=C\C=C\[C@@H]2C)[C@@]43O)OC(C)C1O (some centres not stated) | 31.6 µM [rising, single point] | 0.00355 µM [falling, full curve, poor fit]
8 | O=C(NCc1cccnc1)C1CCCN(S(=O)(=O)c2ccc(Br)cc2)C1 (configuration not stated) | 35.5 µM [rising, single point] | 35.5 µM [rising, single point]
9 | CCCCC(CC)COC(=O)c1ccc(N(C)C)cc1 (configuration not stated) | 0.447 µM [falling, single point] | 0.00398 µM [falling, full curve, poor fit]
10 | COC(=O)c1ccc(Oc2cc(C)nc(SC)n2)cc1 | 4.47 µM [rising, single point] | –
11 | COC(=O)C1=C(C(=O)OC)[C@@H]2N(C)c3ccccc3[C@@]23C[C@@H](C(=O)OC)N(C(=O)C2CCC2)C3=N1 | – | 1.26 µM [rising, single point]
12 | CCCCCCCOC(=O)C1=C(C)Nc2ncnn2C1c1cccs1 (configuration not stated) | 15.8 µM [rising, single point] | –
13 | O=c1[nH]nc(Cc2ccc(Cl)cc2)c2ccccc12 | 31.6 µM [rising, single point] | –
14 | Cc1ccc(Cn2cnc3nc4c(cc3c2=O)CC(C)CC4)cc1 (configuration not stated) | 12.6 µM [rising, single point] | –
15 | O=C(C1CCC1)N1CCc2cc(S(=O)(=O)Nc3ccc4c(c3)OCO4)ccc21 | 12.6 µM [rising, partial curve] | 2.51 µM [rising, full curve]
16 | CCOC(=O)N/N=C(/C)c1cccc(-n2cnnn2)c1 | 0.2 µM [falling, full curve] | –
17 | Cc1cccc(C(=O)NNc2ncnc3c2cnn3-c2ccc(C)cc2C)c1 | 15.8 µM [rising, partial curve] | –
18 | Cc1cccc(NC(=O)C2CCCN2/C=C/C(=O)C(F)(F)F)c1C (configuration not stated) | 8.91 µM [rising, partial curve] | –

Row | SMILES | AC50 [1] | AC50 [2]
19 | O=C(NCc1ccc(F)cc1)C1(c2cccs2)CCOCC1 | – | 0.0447 µM [falling, full curve, poor fit]
20 | CCn1c(/C=C2\C(=O)Nc3ccccc32)nc2ccccc2c1=O | 14.1 µM [rising, single point] | –
21 | COc1ccc2nc(SCc3nc(N)nc(Nc4ccccc4)n3)[nH]c2c1 | 14.1 µM [rising, single point] | –
22 | NC(=O)c1cc2ccccc2o/c1=N/NC(=O)c1cccs1 | 0.562 µM [rising, full curve, poor fit] | 0.0355 µM [rising, full curve, poor fit]
23 | CC(C)Cn1c(N)c(C(=O)COC(=O)c2cc(C3CC3)nc3ccccc23)c(=O)n(C)c1=O | 15.8 µM [rising, partial curve] | 11.2 µM [rising, partial curve, poor fit]
24 | Cc1ccc(NC(=O)CCn2cnc3ccccc3c2=O)cc1 | 5.01 µM [falling, partial curve, poor fit] | 3.16 µM [falling, partial curve]
25 | CC(=O)Nc1ccc(N2C(=O)CSC2c2cccc([N+](=O)[O-])c2)cc1 (configuration not stated) | 0.2 µM [rising, full curve, poor fit] | –
26 | C[C@@]12C=CC(=O)C=C1CC[C@H]1[C@H]3CC[C@](O)(C(=O)CO)[C@]3(C)CC(=O)[C@@H]12 | 3.16 µM [falling, single point] | 1.12 µM [falling, single point]
27 | COc1cc(OC)c2c(=O)c(O)c(-c3ccc(OC)c(OC)c3)oc2c1 | – | 11.2 µM [falling, partial curve]
28 | COc1ccc(C2(C(=O)Nc3ccccc3)CCOCC2)cc1 | – | 0.00316 µM [falling, full curve, poor fit]
29 | Cc1cc(Cl)ccc1NC(=O)NC1CCN(S(=O)(=O)c2ccc(F)cc2)CC1 | 12.6 µM [rising, single point] | –
30 | CC1(OC(=O)C2CCCC2)C(=O)C=C2C=C(c3ccsc3)N(CCN3CCOCC3)C=C2C1=O (configuration not stated) | 6.31 µM [rising, single point] | –
31 | O=C(N/N=C/c1ccccc1O)/C(=C/c1ccccc1)CCO | 14.1 µM [rising, partial curve, poor fit] | –
32 | COc1ccc(C(=O)Cc2ccc3c(c2)OCO3)c(O)c1 | 0.0398 µM [falling, full curve] | –
33 | Cc1ccc(Nc2nc(CSc3nnc(-c4cccnc4)n3-c3ccccc3C)cs2)cc1 | 12.6 µM [rising, single point] | –
34 | COc1cccc(OC)c1OCCCOc1ccc([N+](=O)[O-])cc1Cl | 35.5 µM [rising, single point] | 35.5 µM [rising, single point]
35 | COc1cccc2c(=O)c3ccccc3oc12 | 0.316 µM [falling, full curve, poor fit] | 2.51 µM [falling, partial curve]

7 entries from above, with tabs.
Row	SMILES	AC50 [1]	AC50 [2]
26	C[C@@]12C=CC(=O)C=C1CC[C@H]1[C@H]3CC[C@](O)(C(=O)CO)[C@]3(C)CC(=O)[C@@H]12	3.16 µM [falling, single point]	1.12 µM [falling, single point]
27	COc1cc(OC)c2c(=O)c(O)c(-c3ccc(OC)c(OC)c3)oc2c1	–	11.2 µM [falling, partial curve]
28	COc1ccc(C2(C(=O)Nc3ccccc3)CCOCC2)cc1	–	0.00316 µM [falling, full curve, poor fit]
29	Cc1cc(Cl)ccc1NC(=O)NC1CCN(S(=O)(=O)c2ccc(F)cc2)CC1	12.6 µM [rising, single point]	–
30	CC1(OC(=O)C2CCCC2)C(=O)C=C2C=C(c3ccsc3)N(CCN3CCOCC3)C=C2C1=O (configuration not stated)	6.31 µM [rising, single point]	–
31	O=C(N/N=C/c1ccccc1O)/C(=C/c1ccccc1)CCO	14.1 µM [rising, partial curve, poor fit]	–
32	COc1ccc(C(=O)Cc2ccc3c(c2)OCO3)c(O)c1	0.0398 µM [falling, full curve]	–
